Our source for the binding values is publication PMC10803816, “EGFR core fucosylation, induced by hepatitis C virus, promotes TRIM40-mediated-RIG-I ubiquitination and suppresses interferon-I antiviral defenses”.

The target of the experiment is T1, His-RIG-I (UniProt O95786).
T1 sequence: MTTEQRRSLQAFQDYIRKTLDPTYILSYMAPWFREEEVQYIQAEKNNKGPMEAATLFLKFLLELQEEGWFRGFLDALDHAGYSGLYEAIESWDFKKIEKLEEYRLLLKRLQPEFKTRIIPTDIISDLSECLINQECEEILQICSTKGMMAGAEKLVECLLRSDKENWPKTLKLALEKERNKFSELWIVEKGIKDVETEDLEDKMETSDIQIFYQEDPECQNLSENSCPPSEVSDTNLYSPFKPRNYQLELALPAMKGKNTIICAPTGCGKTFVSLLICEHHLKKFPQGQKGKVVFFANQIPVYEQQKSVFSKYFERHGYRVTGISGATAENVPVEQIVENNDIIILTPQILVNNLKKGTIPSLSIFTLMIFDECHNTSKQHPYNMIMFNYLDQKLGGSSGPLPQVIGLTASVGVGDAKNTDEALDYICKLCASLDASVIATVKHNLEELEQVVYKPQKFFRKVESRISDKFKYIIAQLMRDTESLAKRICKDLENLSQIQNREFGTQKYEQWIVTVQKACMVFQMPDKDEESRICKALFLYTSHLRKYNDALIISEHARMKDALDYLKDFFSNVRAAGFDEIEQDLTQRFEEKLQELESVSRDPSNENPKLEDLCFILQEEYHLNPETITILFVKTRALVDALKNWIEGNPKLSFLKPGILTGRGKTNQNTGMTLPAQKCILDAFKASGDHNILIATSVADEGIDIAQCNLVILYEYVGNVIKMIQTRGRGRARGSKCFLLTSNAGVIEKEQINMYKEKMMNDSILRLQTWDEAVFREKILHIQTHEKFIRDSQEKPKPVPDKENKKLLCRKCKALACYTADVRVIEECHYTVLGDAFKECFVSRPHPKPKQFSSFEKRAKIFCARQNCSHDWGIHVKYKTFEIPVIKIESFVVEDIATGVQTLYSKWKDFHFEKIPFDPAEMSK
The experiment can be described thus: co-IP; Huh7.5.1 cells transfected with indicated plasmids (FUT8 overexpression) or treated with 2FF (100 uM) for 24 h, then infected with HCV (MOI = 0.1) for 48 h with MG132; IP with antibody to His-RIG-I and blot for Trim40, or IP with antibody to Trim40 and blot for His tag; RIPA buffer, protein A agarose beads, 4 °C.

These are yes or no findings as the source states them, for the method shown. In cells and extracts the contact can be indirect. Some binding calls cover weakened binding; strength is not graded here. Where a sequence is shown, tags or fusion partners need not be part of it.

B1: Trim40 (protein, UniProt Q6P9F5 1-258)
chain: MIPLQKDNQEEGVCPICQESLKEAVSTNCGHLFCRVCLTQHVEKASASGVFCCPLCRKPCSEEVLGTGYICPNHQKRVCRFCEESRLLLCVECLVSPEHMSHHELTIENALSHYKERLNRRSRKLRKDIAELQRLKAQQEKKLQALQFQVDHGNHRLEAGPESQHQTREQLGALPQQWLGQLEHMPAEAARILDISRAVTQLRSLVIDLERTAKELDTNTLKNAGDLLNRSAPQKLEVIYPQLEKGVSELLLQPPQKL
Take B1: the binding entry is given as “binds”.
